Test results: patent US6947790B2, “Neurocognitive function EEG measurement method and system” (priority 2000, dated 2005)
No dose or concentration is given here for some results.

Test system: healthy adults
Experiment: Experiment 1: stepwise linear discriminant analysis, treatment vs placebo
Type: in vivo, human
Conditions: post treatment

## CCO [alcohol, ethanol]
  EEG LDA Analysis: time of peak difference: 2.5 to 3 h
